No constants are given. Whether binding was seen depends on the method and setting. In cells and extracts the contact can be indirect. A yes stands for co-enrichment or nearness to the bait. Other partners may have been found. Tags and fused reporters may be left off the sequences shown.

Amino acid sequences for entries named in this document (tags omitted). A change or cut given only in a name is not applied to a line headed by its entry.
UniProt P63010: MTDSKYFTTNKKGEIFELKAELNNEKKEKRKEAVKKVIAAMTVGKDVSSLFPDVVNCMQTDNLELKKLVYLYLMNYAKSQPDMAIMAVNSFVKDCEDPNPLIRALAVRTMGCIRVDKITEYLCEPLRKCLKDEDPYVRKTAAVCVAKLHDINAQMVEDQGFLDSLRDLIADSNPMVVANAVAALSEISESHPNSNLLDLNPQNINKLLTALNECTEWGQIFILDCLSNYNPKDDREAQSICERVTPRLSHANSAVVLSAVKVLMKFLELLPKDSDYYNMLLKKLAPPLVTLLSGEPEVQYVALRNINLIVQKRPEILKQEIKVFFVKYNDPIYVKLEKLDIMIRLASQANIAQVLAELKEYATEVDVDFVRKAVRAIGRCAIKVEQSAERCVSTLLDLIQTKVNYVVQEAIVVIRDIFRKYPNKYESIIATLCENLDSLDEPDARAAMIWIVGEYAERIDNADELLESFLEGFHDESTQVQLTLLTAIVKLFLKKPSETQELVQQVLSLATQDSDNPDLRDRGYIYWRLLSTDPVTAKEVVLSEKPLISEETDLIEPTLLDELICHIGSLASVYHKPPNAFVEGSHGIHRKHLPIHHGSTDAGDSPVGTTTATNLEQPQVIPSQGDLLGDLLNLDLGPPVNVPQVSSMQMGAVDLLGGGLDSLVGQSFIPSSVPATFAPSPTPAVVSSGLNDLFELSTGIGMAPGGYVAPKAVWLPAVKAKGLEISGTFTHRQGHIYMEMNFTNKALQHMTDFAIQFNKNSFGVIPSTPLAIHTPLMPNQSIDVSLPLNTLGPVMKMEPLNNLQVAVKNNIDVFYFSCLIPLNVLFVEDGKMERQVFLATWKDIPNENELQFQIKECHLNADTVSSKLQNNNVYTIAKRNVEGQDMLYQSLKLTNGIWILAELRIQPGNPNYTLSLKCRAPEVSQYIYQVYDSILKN
UniProt Q03135: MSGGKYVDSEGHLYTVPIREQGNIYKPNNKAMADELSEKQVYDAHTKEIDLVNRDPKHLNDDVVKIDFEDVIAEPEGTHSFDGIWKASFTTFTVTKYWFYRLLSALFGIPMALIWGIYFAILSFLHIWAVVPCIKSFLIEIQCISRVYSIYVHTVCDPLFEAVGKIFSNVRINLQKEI
UniProt Q99961: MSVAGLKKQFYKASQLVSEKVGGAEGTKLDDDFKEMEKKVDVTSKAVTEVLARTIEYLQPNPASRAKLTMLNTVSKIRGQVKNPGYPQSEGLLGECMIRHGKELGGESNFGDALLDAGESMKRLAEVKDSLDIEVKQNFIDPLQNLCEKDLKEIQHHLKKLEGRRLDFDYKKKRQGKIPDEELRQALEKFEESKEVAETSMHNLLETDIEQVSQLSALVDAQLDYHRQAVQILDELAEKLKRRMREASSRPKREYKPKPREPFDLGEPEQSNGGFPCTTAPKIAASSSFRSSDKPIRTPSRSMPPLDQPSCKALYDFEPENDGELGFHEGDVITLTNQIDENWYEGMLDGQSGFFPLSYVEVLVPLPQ
UniProt P05556: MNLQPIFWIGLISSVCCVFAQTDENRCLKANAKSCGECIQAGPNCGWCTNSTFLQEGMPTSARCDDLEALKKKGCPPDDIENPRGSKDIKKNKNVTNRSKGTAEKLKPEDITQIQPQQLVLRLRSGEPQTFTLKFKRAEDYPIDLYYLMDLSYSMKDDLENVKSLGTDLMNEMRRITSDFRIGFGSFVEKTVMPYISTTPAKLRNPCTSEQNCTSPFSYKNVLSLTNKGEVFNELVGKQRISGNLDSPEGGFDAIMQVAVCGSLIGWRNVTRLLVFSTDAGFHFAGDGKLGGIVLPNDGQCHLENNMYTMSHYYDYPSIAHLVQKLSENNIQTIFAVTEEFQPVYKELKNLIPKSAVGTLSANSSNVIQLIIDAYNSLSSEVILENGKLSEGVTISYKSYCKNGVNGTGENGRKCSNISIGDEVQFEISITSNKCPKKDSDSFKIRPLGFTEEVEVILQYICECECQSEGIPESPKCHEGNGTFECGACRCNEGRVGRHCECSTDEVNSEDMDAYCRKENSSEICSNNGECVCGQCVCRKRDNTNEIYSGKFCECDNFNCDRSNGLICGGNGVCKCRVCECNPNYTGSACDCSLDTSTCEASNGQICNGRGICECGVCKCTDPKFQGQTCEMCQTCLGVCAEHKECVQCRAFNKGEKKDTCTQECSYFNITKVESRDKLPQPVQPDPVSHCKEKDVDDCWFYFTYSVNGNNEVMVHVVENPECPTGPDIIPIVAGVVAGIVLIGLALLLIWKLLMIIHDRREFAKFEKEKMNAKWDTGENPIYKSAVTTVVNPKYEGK
UniProt Q8WUM4: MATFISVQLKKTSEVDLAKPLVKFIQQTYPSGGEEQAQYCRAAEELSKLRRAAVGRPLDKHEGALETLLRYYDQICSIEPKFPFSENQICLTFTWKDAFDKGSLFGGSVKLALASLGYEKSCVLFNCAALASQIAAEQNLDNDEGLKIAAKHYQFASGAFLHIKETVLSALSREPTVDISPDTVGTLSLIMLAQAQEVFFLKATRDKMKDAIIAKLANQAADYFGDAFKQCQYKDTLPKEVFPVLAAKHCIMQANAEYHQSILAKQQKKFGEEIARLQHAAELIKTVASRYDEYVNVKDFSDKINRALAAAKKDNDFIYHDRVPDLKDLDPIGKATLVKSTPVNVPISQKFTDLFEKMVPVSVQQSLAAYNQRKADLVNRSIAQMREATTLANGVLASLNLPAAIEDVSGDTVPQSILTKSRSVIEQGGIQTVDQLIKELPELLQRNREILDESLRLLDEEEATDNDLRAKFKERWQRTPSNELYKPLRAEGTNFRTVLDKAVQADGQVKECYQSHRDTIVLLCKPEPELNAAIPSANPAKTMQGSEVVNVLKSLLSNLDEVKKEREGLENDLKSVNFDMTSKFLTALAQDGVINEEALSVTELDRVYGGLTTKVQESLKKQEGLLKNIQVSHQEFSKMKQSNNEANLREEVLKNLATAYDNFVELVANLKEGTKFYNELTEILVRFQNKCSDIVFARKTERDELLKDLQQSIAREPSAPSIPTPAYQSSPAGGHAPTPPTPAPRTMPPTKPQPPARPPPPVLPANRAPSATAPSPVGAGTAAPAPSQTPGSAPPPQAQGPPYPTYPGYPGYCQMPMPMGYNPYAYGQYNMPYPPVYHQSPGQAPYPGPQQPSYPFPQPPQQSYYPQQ
UniProt Q9Y5X1: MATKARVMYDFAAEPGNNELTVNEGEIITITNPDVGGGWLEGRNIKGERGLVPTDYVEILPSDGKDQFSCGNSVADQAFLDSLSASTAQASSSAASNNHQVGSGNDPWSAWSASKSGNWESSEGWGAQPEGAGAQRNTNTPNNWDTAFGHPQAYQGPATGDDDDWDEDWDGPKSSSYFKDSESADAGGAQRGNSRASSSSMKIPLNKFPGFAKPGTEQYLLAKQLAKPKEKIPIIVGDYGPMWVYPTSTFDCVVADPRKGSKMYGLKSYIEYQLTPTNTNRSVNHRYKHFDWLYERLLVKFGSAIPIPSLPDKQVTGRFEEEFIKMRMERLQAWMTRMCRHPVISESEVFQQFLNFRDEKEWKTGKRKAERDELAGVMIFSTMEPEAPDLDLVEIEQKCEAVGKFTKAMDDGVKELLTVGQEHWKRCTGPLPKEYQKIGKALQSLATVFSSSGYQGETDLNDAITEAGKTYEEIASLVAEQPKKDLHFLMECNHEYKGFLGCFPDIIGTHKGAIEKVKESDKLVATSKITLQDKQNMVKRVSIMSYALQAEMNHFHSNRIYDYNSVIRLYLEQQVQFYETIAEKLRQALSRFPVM
UniProt Q9Y4G6: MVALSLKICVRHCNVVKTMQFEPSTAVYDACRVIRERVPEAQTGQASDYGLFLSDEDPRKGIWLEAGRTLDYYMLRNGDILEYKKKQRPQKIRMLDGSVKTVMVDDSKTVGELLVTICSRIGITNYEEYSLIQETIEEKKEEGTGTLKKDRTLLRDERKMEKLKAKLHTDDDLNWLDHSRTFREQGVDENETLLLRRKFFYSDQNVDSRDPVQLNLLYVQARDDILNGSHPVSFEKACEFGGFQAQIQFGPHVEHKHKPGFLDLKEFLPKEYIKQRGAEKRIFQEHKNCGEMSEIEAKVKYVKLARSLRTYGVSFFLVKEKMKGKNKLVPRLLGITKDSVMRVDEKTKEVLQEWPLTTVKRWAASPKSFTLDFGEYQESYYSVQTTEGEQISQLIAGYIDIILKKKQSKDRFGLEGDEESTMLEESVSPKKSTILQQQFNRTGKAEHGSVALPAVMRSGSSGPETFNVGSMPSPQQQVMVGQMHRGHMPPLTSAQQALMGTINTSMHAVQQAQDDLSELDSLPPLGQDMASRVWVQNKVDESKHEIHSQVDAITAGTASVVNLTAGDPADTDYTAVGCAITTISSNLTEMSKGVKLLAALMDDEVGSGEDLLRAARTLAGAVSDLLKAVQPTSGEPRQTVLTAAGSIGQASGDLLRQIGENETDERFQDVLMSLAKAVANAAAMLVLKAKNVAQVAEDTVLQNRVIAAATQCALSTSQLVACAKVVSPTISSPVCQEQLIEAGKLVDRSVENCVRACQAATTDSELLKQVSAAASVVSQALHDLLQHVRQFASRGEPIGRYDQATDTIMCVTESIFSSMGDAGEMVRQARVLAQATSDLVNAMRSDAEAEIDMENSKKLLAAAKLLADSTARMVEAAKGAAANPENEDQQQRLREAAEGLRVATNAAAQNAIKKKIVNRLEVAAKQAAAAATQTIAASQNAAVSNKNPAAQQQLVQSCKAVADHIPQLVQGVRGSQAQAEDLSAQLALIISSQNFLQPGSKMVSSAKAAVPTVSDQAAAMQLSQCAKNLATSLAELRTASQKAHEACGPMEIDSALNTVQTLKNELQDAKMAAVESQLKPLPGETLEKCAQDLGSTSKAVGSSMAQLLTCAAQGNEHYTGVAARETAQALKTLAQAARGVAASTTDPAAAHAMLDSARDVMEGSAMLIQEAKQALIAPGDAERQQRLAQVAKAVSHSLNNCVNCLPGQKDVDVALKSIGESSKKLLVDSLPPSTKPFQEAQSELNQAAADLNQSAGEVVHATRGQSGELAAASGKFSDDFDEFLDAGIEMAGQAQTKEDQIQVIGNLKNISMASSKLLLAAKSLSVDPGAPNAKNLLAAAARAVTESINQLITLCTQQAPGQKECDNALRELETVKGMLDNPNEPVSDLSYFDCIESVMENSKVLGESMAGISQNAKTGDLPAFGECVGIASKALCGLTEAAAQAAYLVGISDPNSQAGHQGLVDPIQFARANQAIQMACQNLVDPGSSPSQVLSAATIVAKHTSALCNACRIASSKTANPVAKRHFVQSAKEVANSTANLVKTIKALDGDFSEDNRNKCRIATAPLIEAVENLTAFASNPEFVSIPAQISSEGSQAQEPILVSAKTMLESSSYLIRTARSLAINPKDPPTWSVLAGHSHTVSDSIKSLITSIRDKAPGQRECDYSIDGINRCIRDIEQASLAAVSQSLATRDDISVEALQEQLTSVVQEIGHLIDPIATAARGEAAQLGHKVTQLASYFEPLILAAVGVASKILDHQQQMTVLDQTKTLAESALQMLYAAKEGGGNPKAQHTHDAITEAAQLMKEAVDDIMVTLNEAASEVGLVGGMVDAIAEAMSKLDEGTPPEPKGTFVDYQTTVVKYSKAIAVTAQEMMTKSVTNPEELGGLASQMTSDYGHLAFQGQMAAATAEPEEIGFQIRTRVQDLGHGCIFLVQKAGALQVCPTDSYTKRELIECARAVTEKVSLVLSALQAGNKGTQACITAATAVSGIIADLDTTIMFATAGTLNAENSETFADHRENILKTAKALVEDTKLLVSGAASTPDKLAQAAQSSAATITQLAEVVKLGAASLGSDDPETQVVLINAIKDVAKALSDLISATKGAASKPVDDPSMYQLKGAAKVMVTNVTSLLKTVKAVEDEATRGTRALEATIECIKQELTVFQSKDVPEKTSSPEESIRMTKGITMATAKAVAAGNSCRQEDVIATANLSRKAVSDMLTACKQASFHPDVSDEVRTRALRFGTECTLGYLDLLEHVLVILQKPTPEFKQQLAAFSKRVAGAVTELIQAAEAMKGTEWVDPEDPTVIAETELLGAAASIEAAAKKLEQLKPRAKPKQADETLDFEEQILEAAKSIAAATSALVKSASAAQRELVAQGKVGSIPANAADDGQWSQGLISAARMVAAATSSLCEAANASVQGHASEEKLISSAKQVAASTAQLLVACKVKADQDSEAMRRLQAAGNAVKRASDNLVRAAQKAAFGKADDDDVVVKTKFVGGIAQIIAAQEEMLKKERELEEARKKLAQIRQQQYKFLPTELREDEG
UniProt O43617: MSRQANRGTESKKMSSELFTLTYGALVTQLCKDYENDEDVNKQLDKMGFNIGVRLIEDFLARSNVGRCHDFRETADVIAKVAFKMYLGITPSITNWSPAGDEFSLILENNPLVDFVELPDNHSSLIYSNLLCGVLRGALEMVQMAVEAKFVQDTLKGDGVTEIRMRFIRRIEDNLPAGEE

This is an account of results in paper PMC8494857.

The target in the assay is PEA-15 (Phosphoprotein Enriched in Astrocytes of 15 kDa) (human (endogenous in U87MG)) (UniProt Q15121). Nature of the assay: affinity purification with mass spectrometry; endogenous PEA-15 precipitated with anti-PEA15 antibodies from whole cell lysates of U87MG (serum starved, then EGF or vehicle); SDS-PAGE, in-gel trypsin digest, LC-MS/MS; IgG alone as control.

For “AP-2 complex subunit alpha-1 (from UniProt O95782 1-977)”, the binding result is reported as “binds”.

“AP-2 complex subunit beta (from UniProt P63010 1-937)”: the binding result was “binds”.

Consider “Alpha-taxilin (from UniProt P40222 1-546)”, for which the binding entry is listed as “binds”.

As for Caveolin-1 (from UniProt Q03135 1-178), the binding entry was “binds”.

With “Clathrin heavy chain 1 (from UniProt Q00610 1-1675)”, the binding result is given as “binds”.

Regarding Cortactin (from UniProt Q14247 1-550), the binding result is recorded as “binds”.

“Dynactin subunit 1 (from UniProt Q14203 1-1278)”: the binding entry is “binds”.

For the molecule “ELKS/Rab6-interacting/CAST family member 1 (from UniProt Q8IUD2 1-1116)”, the binding entry is recorded as “binds”.

With “Early endosome antigen 1 (from UniProt Q15075 1-1411)”, the binding entry is reported as “binds”.

As for “Endophilin-A2 (from UniProt Q99961 1-368)”, the binding entry is recorded as “binds”.

On to Filamin-A (from UniProt P21333 1-2647), for which the binding result is reported as “binds”.

On to Filamin-B (from UniProt O75369 1-2602), for which the binding result is on record as “binds”.

Take Filamin-C (from UniProt Q14315 1-2725): the binding result is “binds”.

Turning to “Heat Shock 70 kDa Protein 8 (from UniProt P11142 1-646)”, the binding entry is reported as “binds”.

On to “Integrin beta-1 (from UniProt P05556 21-798) (receptor)”, for which the binding result is “binds”.

With Moesin (from UniProt P26038 1-577), the binding entry was “binds”.

In the case of “Programmed cell death 6 -interacting protein (from UniProt Q8WUM4 1-868)”, the binding result is “binds”.

In the case of “Sorting nexin-9 (from UniProt Q9Y5X1 1-595)”, the binding entry was “binds”.

As to Talin-1 (from UniProt Q9Y490 1-2541), the binding result is recorded as “binds”.

Turning to Talin-2 (from UniProt Q9Y4G6 1-2542), the binding entry is “binds”.

Turning to “Trafficking protein particle complex subunit 3 (from UniProt O43617 1-180)”, the binding result is “binds”.

Turning to “Transport and Golgi organization protein 1 homolog (from UniProt Q5JRA6 23-1907)”, the binding result is recorded as “binds”.

B1: Charged multivesicular body protein 4b (protein, UniProt Q9H444 1-224)
chain: MSVFGKLFGAGGGKAGKGGPTPQEAIQRLRDTEEMLSKKQEFLEKKIEQELTAAKKHGTKNKRAALQALKRKKRYEKQLAQIDGTLSTIEFQREALENANTNTEVLKNMGYAAKAMKAAHDNMDIDKVDELMQDIADQQELAEEISTAISKPVGFGEEFDEDELMAELEELEQEELDKNLLEISGPETVPLPNVPSIALPSKPAKKKEEEDDDMKELENWAGSM
As to B1, the binding result is “binds”.

B2: Alpha-soluble NSF attachment protein (protein, UniProt P54920 1-295)
chain: MDNSGKEAEAMALLAEAERKVKNSQSFFSGLFGGSSKIEEACEIYARAANMFKMAKNWSAAGNAFCQAAQLHLQLQSKHDAATCFVDAGNAFKKADPQEAINCLMRAIEIYTDMGRFTIAAKHHISIAEIYETELVDIEKAIAHYEQSADYYKGEESNSSANKCLLKVAGYAALLEQYQKAIDIYEQVGTNAMDSPLLKYSAKDYFFKAALCHFCIDMLNAKLAVQKYEELFPAFSDSRECKLMKKLLEAHEEQNVDSYTESVKEYDSISRLDQWLTTMLLRIKKTIQGDEEDLR
Turning to B2, the binding result was “binds”.

B3: Clathrin light chain A (protein, UniProt P09496 1-248)
chain: MAELDPFGAPAGAPGGPALGNGVAGAGEEDPAAAFLAQQESEIAGIENDEAFAILDGGAPGPQPHGEPPGGPDAVDGVMNGEYYQESNGPTDSYAAISQVDRLQSEPESIRKWREEQMERLEALDANSRKQEAEWKEKAIKELEEWYARQDEQLQKTKANNRVADEAFYKQPFADVIGYVTNINHPCYSLEQAAEEAFVNDIDESSPGTEWERVARLCDFNPKSSKQAKDVSRMRSVLISLKQAPLVH
As to B3, the binding entry is “binds”.

B4: Amphiphysin II (Myc box-dependent-interacting protein 1) (protein, UniProt O00499 1-593)
chain: MAEMGSKGVTAGKIASNVQKKLTRAQEKVLQKLGKADETKDEQFEQCVQNFNKQLTEGTRLQKDLRTYLASVKAMHEASKKLNECLQEVYEPDWPGRDEANKIAENNDLLWMDYHQKLVDQALLTMDTYLGQFPDIKSRIAKRGRKLVDYDSARHHYESLQTAKKKDEAKIAKPVSLLEKAAPQWCQGKLQAHLVAQTNLLRNQAEEELIKAQKVFEEMNVDLQEELPSLWNSRVGFYVNTFQSIAGLEENFHKEMSKLNQNLNDVLVGLEKQHGSNTFTVKAQPSDNAPAKGNKSPSPPDGSPAATPEIRVNHEPEPAGGATPGATLPKSPSQLRKGPPVPPPPKHTPSKEVKQEQILSLFEDTFVPEISVTTPSQFEAPGPFSEQASLLDLDFDPLPPVTSPVKAPTPSGQSIPWDLWEPTESPAGSLPSGEPSAAEGTFAVSWPSQTAEPGPAQPAEASEVAGGTQPAAGAQEPGETAASEAASSSLPAVVVETFPATVNGTVEGGSGAGRLDLPPGFMFKVQAQHDYTATDTDELQLKAGDVVLVIPFQNPEEQDEGWLMGVKESDWNQHKELEKCRGVFPENFTERVP
As to B4, the binding result is on record as “binds”.

B5: General vesicular transport factor p115 (protein, UniProt O60763 1-962)
chain: MNFLRGVMGGQSAGPQHTEAETIQKLCDRVASSTLLDDRRNAVRALKSLSKKYRLEVGIQAMEHLIHVLQTDRSDSEIIGYALDTLYNIISNEEEEEVEENSTRQSEDLGSQFTEIFIKQQENVTLLLSLLEEFDFHVRWPGVKLLTSLLKQLGPQVQQIILVSPMGVSRLMDLLADSREVIRNDGVLLLQALTRSNGAIQKIVAFENAFERLLDIISEEGNSDGGIVVEDCLILLQNLLKNNNSNQNFFKEGSYIQRMKPWFEVGDENSGWSAQKVTNLHLMLQLVRVLVSPTNPPGATSSCQKAMFQCGLLQQLCTILMATGVPADILTETINTVSEVIRGCQVNQDYFASVNAPSNPPRPAIVVLLMSMVNERQPFVLRCAVLYCFQCFLYKNQKGQGEIVSTLLPSTIDATGNSVSAGQLLCGGLFSTDSLSNWCAAVALAHALQENATQKEQLLRVQLATSIGNPPVSLLQQCTNILSQGSKIQTRVGLLMLLCTWLSNCPIAVTHFLHNSANVPFLTGQIAENLGEEEQLVQGLCALLLGISIYFNDNSLESYMKEKLKQLIEKRIGKENFIEKLGFISKHELYSRASQKPQPNFPSPEYMIFDHEFTKLVKELEGVITKAIYKSSEEDKKEEEVKKTLEQHDNIVTHYKNMIREQDLQLEELRQQVSTLKCQNEQLQTAVTQQVSQIQQHKDQYNLLKIQLGKDNQHQGSYSEGAQMNGIQPEEIGRLREEIEELKRNQELLQSQLTEKDSMIENMKSSQTSGTNEQSSAIVSARDSEQVAELKQELATLKSQLNSQSVEITKLQTEKQELLQKTEAFAKSVEVQGETETIIATKTTDVEGRLSALLQETKELKNEIKALSEERTAIKEQLDSSNSTIAILQTEKDKLELEITDSKKEQDDLLVLLADQDQKILSLKNKLKDLGHPVEEEDELESGDQEDEDDESEDPGKDLDHI
On to B5, for which the binding result is given as “binds”.
